Assay results taken from the supplement of paper PMC8256030.
The list shows a part of the results. This data set is noisy: repeats of one test often differ as much as different tests do.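 HEK293T cells were given each compound shortly before transfection with a reporter in which red mCherry is followed by the SARS-CoV-2 frameshift element and then GFP in the −1 frame, so GFP appears only after frameshifting.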

Columns and labels:
[1] = tested on: SARS-CoV-2 -1 PRF reporter mCherry-FSE-GFP(-1); experiment: mCherry (red) intensity as percent of control; higher = higher upstream reporter expression; conditions: 10 µM; 24 h; HEK293T
[2] = tested on: SARS-CoV-2 -1 PRF reporter mCherry-FSE-GFP(-1); experiment: percent effect, decrease of GFP/mCherry ratio (-1 PRF reporter) relative to controls; higher = stronger frameshift inhibition; conditions: 10 µM; 24 h; HEK293T

Row | Structure (SMILES) | mCherry [1] [%] | percent effect [2] [%]
1 | Cc1ccccc1OCC(O)CN1CC=CCC1 (centres undefined) [tolpronine] | 98.4 | -0.859
2 | CCC(c1ccccc1)c1c(O)c2ccccc2oc1=O (centres undefined) [phenprocoumon] | 95.5 | -1.95
3 | CC(O)(CC(=O)O)CC(=O)O [meglutol] | 98.4 | -1.84
4 | CCN(CC)CCOc1cc2oc(=O)cc(C)c2cc1OCCN(CC)CC [oxamarin] | 59.9 | 2.71
5 | CCCCC/C=C\C/C=C\C/C=C\CCCCCCC(=O)O | 110 | -0.966
6 | O=C(O)c1ccccc1NCCc1ccccc1 [enfenamic acid] | 96.9 | 0.0628
7 | CCOCCn1c(N2CCCN(C)CC2)nc2ccccc21 [emedastine] | 95.8 | -2.43
8 | CN1CCCCC1CCN1c2ccccc2Sc2ccc([S+](C)[O-])cc21 (centres undefined) | 92.9 | -1.69
9 | O=C(O)COc1ccc(C(=O)c2cccs2)c(Cl)c1Cl [tienilic acid] | 78.3 | -0.927
10 | NC(C(=O)O)C(O)c1ccc(O)c(O)c1 (centres undefined) | 87.5 | -8.01
11 | CN(C)CCCSc1ccccc1NC(=O)/C=C/c1ccccc1 [Cinanserin] | 69.6 | 9.32
12 | CCOC(=O)CC(=O)N1CCSC1COc1ccccc1OC (centres undefined) [moguisteine] | 124 | -1.38
